Data source: PubChem BioAssay AID1259405 (NCATS, 2018)

Aim: 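Knock-downs that lift recombinant protein yield in hamster ovary cells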 (primary screen)
Cell system: Chinese hamster CHO-K1 ovary cells with stable secreted eGFP expression
Knock-down reagent: single siRNA against mouse genes, 0.8 pmol siRNA per well (2 µl of 400 nM stock)
Duration: 3 days
Read-out: 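Percent of the per-plate non-targeting control median for intracellular GFP per well by laser scanning cytometry and for cell viability by ATP luminescence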
Scale: GFP, % of control: higher = more GFP per well, higher productivity; viability (ATP), % of control: higher = more viable cells (more ATP)
Hit rule: 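a knock-down is called active if GFP reaches 120% or more of non-targeting control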
The deposit covers about 50,000 reagents; shown is a part drawn at random. Of all reagents, about 4,000 (8%) were called active. 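Mouse siRNA library applied to hamster cells; one well for each siRNA.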 A number with no mark means an inactive call. The numbers tell different reagents against one gene apart.

With knock-down of Akr1c12 (aldo-keto reductase family 1, member C12) #1 the results were GFP, % of control 83.1; viability (ATP), % of control 112.
Akr1c12 (aldo-keto reductase family 1, member C12) #2 scored GFP, % of control 75.6; viability (ATP), % of control 56.4.
Against Akr1c12 (aldo-keto reductase family 1, member C12) #3, the entry reads GFP, % of control 58.2; viability (ATP), % of control 64.8.
After knock-down of Cnst (consortin, connexin sorting protein) #1 the results were GFP, % of control 85.1; viability (ATP), % of control 73.7.
Cnst (consortin, connexin sorting protein) #2 gave GFP, % of control 83; viability (ATP), % of control 74.5.
Cnst (consortin, connexin sorting protein) #3 showed GFP, % of control 77.6; viability (ATP), % of control 72.8.
After knock-down of Fbln1 (fibulin 1) #1 the results were GFP, % of control 111; viability (ATP), % of control 107.
Against Fbln1 (fibulin 1) #2, the values are GFP, % of control 64.6; viability (ATP), % of control 86.5.

Targets listed so far whose gene name starts with F or f (2):
Fbln1 (fibulin 1) #1 — GFP, % of control = 111; viability (ATP), % of control = 107
Fbln1 (fibulin 1) #2 — GFP, % of control = 64.6; viability (ATP), % of control = 86.5

Next entries follow:
Ash1l (ASH1 like histone lysine methyltransferase) #1 scored GFP, % of control 18.1; viability (ATP), % of control 22.5.
Ash1l (ASH1 like histone lysine methyltransferase) #2 showed GFP, % of control 87.3; viability (ATP), % of control 86.4.
Depletion of Ash1l (ASH1 like histone lysine methyltransferase) #3 came out at: GFP, % of control 73.5; viability (ATP), % of control 66.9.
After knock-down of Ddx46 (DEAD box helicase 46) #1, the screen gave GFP, % of control 71.4; viability (ATP), % of control 59.2.
With knock-down of Ddx46 (DEAD box helicase 46) #2, the record shows GFP, % of control 72.3; viability (ATP), % of control 61.8.
Against Ddx46 (DEAD box helicase 46) #3, the values are GFP, % of control 62.1; viability (ATP), % of control 57.9.
For Bmp1 (bone morphogenetic protein 1) #1 the deposit lists GFP, % of control 72.4; viability (ATP), % of control 63.2.
For Bmp1 (bone morphogenetic protein 1) #2, the entry reads GFP, % of control 89.5; viability (ATP), % of control 86.9.
After knock-down of Bmp1 (bone morphogenetic protein 1) #3, the record shows GFP, % of control 132 (active); viability (ATP), % of control 153.
